Assay results taken from ChEMBL document CHEMBL1139131, “Lead optimization of 5,6-diarylpyridines as CB1 receptor inverse agonists” (Bioorg Med Chem Lett, 2007).

Assay: in vivo
Details: Sprague-Dawley, rat

N#Cc1cc(-c2ccc(Cl)cc2)c(-c2ccc(Cl)cc2Cl)nc1OCc1ccc(F)c(F)c1
Vd: 0.77 L/kg
